Consider one substance from article PMC3044755.

Protein sequences, listed by entry. Tags and fused reporters are not part of them. Lines headed by an entry give the natural chain unless they say otherwise; changes in a name come on top.
UniProt Q8C6B2: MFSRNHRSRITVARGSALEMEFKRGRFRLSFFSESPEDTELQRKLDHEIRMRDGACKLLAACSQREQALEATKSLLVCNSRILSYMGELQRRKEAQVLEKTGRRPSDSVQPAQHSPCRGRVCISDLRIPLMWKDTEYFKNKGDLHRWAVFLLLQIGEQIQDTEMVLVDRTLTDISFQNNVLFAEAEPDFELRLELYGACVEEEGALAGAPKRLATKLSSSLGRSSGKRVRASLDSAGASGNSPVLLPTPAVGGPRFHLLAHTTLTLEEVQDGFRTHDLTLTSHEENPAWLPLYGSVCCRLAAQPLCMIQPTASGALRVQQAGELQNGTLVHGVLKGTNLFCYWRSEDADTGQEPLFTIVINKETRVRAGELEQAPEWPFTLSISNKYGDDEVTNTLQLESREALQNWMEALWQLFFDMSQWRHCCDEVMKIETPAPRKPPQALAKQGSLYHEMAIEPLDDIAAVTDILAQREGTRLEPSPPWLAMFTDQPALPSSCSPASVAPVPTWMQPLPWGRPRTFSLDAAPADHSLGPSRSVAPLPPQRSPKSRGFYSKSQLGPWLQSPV
UniProt P61586: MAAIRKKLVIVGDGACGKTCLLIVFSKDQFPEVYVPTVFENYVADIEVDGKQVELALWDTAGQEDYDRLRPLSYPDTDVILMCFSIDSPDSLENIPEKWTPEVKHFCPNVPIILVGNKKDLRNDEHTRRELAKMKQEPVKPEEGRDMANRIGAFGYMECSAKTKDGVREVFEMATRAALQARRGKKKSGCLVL

The target in the assay is GST-tagged Rhotekin Rho-binding domain (RBD) (UniProt Q8C6B2). Nature of the assay: pull-down; 30-60 ug purified GST-RBD on glutathione-sepharose beads rotated 30 min at 4°C with nuclear or PNS fractions of HEK293 cells in 50 mM Tris pH 7.6, 500 mM NaCl, 1% Triton X-100, 0.1% SDS, 0.5% deoxycholate, 10 mM MgCl2; blotted for RhoA; cells untreated, irradiated (10 Gy), myc-Net1 overexpression or Net1 siRNA; only the target purified.

Results are given in words; binding and its absence hold for the method and conditions named. Binding seen in cells or lysates may run through a third protein. Binding can be weak; no strength is given.

In the case of “RhoA, endogenous (GTP-bound active form) (from UniProt P61586 1-193)”, the binding entry is reported as “binds”.
